For test [1], the target named is TRIM25 RING/B-box1 (1–152) (UniProt Q14258). Briefly: SAXS; batch SAXS, Diamond Light Source beamline B21; at least three dilutions of each construct; concentrations as in Table 2; both purified.
Test [2] has the same target. Kind of test: SEC-MALS; SEC-MALLS, Superdex 75 or Superdex 200 10/300 GL, 25°C, 20 mM HEPES pH 7.5, 100 mM NaCl (TRIM32) or 150 mM NaCl (TRIM25), 0.5 mM TCEP, 3 mM NaN3; samples run over a range of concentrations; both purified. In general terms: SEC sorts molecules by how far they enter the pores of the column.
The target in test [3] is TRIM25 RING/B-box1+2 (1–202) (UniProt Q14258). Briefly: SAXS; batch SAXS, Diamond Light Source beamline B21; at least three dilutions of each construct; concentrations as in Table 2; both purified.
For test [4] the target is unchanged. Briefly: SEC-MALS; SEC-MALLS, Superdex 75 or Superdex 200 10/300 GL, 25°C, 20 mM HEPES pH 7.5, 100 mM NaCl (TRIM32) or 150 mM NaCl (TRIM25), 0.5 mM TCEP, 3 mM NaN3; samples run over a range of concentrations; both purified.
Test [5] addresses TRIM32 core RING construct (UniProt Q13049). Kind of test: SAXS; batch SAXS, Diamond Light Source beamline B21; at least three dilutions of each construct; concentrations as in Table 2; both purified.
Test [6] has the same target. Kind of test: SEC-MALS; SEC-MALLS, Superdex 75 or Superdex 200 10/300 GL, 25°C, 20 mM HEPES pH 7.5, 100 mM NaCl (TRIM32) or 150 mM NaCl (TRIM25), 0.5 mM TCEP, 3 mM NaN3; samples run over a range of concentrations; both purified.

Protein sequences, listed by entry. Tags and fused reporters are not part of them. Residues count along the entry.
TRIM25 RING/B-box1+2 (1–202) (Q14258, residues 1-202): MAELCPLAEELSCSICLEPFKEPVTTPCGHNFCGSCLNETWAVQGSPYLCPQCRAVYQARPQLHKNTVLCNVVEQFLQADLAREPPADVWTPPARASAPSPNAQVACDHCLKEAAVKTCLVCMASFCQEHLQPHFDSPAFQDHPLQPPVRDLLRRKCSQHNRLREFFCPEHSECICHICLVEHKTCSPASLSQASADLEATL
TRIM25 RING/B-box1 (1–152) (Q14258, residues 1-152): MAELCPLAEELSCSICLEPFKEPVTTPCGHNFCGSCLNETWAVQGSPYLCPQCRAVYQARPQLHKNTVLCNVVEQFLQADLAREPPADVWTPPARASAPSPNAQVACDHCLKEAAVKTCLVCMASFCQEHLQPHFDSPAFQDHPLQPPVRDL
UniProt Q13049, residues 10-84: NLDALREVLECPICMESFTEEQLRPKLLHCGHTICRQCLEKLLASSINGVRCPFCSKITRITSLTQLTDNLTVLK

Results are given in words; binding and its absence hold for the method and conditions named.

For “TRIM25 RING/B-box1 (1–152) (from UniProt Q14258 1-152) (domain or fragment)”, the binding result in test [1] is listed as “no binding (tested: 3.5 mg/ml)”; in test [2], “no binding (tested: 3.2 mg/ml)”.

With “TRIM25 RING/B-box1+2 (1–202) (from UniProt Q14258 1-202) (domain or fragment)”, the binding entry in test [3] was “no binding (tested: 3.5 mg/ml)”; in test [4] it was “no binding (tested: 3.6 mg/ml)”.

Consider “TRIM32 core RING construct (from UniProt Q13049 10-84) (domain or fragment)”, for which the figures for the binding result in test [5] and in test [6] were “no binding (tested: 2.0 mg/ml)” and “no binding (tested: 3 mg/ml)”, respectively.

For the origin of these results see PMC4864278.
